Results published in US10429397B2 (priority 2015, dated 2019).

Legend:
[1] = system: HeLa cells; test: DC-assisted in cellulo kinase-catalyzed biotinylation of HeLa cells; assay type: cell-based; conditions: inhibitor 1 μM 1 hour before ATP-biotin/DC
Method: Lysates were collected by removing cell debris through centrifugation at 13,200 rpm for 10 minutes at 4° C. […] The gels were images using a Typhoon imager (GE Healthcare Life Sciences) using excitation and emission wavelengths of 650 nm and 670 nm.

[2] = system: HeLa cells; test: Kinase-catalyzed biotinylation of live HeLa cells (in cellulo); assay type: cell-based; conditions: inhibitor 1 μM 1 hour before APB
Method: After washing the cells, the reaction mixtures were separated by SDS-PAGE and visualized with SYPRO® Ruby total protein stain. […] Detailed experimental procedures and data are supplied as supporting information. […] Cell pellets were lysed in lysis buffer (31 μL) on ice for 30 minutes and then lysates were collected as in section VII.

CN[C@@H]1C[C@H]2O[C@@](C)([C@@H]1OC)n1c3ccccc3c3c4c(c5c6ccccc6n2c5c31)C(=O)NC4 [staurosporine, reference compound]
effect of kinase inhibitor pretreatment on DC-assisted in cellulo biotinylation [1]: reduced biotinylation | effect of kinase inhibitor pre-treatment on in cellulo biotinylation with APB [2]: reduced biotinylation
